# PubChem BioAssay AID1671195 | Yale University – 2021
# Purpose: 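Knockdowns that increase or decrease uptake of fluorescent LDL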 (primary screen)
# Cells: human Huh7 hepatoma cells
# Knock-down reagent: siRNA pool against human genes, 18 nM
# Timing: about 2 to 2.5 days of knockdown, then 8 h LDL uptake
# Conditions: DiI-labelled LDL at 30 µg/ml for 8 h, in lipoprotein-deficient serum medium
# Measured: 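Per-cell DiI-LDL intensity by automated imaging; well means scaled to the plate median and given as a robust z-score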
# Reading the numbers: robust z-score: higher = more LDL uptake after knockdown
# Active means: 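Active when two or more replicates show a robust z-score above 2 or below -2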
# This is one part, drawn at random, of about 22,000 reagents tested. Over the whole deposit, about 1,510 (6.9%) got an active call. 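Active includes knockdowns raising or lowering LDL uptake; positive z-scores mean more uptake, negative mean less.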 Unmarked entries are inactive. Reagents against one gene are numbered here. Reagent sequences are not shown.
gene symbol,pool no.,"robust z-score, replicate 1","robust z-score, replicate 2","robust z-score, replicate 3"
PPA2,1,-1.52,-1.6,-0.888
ELN,1,-0.772,0.297,-1.17
FUT5,1,-1.16,-0.76,-0.46
MAVS,1,0.512,1.1,1.09
NCEH1,1,-2.2,-1.79,-0.429
LOC151363 (retired record),1,-0.354,-1.42,-0.00549
FAM180B,1,1.49,-1.2,-1.28
IZUMO1,1,-0.585,-0.348,-0.0678
ANKRA2,1,-0.236,-0.456,-0.603
CFAP99,1,-0.151,-0.353,-0.336
CFAP99,2,-1.39,-1.31,-1.68
BRSK1,1,-0.869,-0.849,-1.17
LOC388657 (retired record),1,-0.478,-0.257,-0.773
LOC440526 (retired record),1,-0.366,-0.956,-0.695
NRM,1,-0.268,1.25,-0.949
RGS10,1,-0.0817,-0.555,-0.0569
RAF1,1,0.216,0.708,0.471
NFX1,1,-0.371,-1.13,-0.759

Laid out differently: entries from further up
LOC151363 (retired record) | robust z-score, replicate 1: -0.354; robust z-score, replicate 2: -1.42; robust z-score, replicate 3: -0.00549
FAM180B | robust z-score, replicate 1: 1.49; robust z-score, replicate 2: -1.2; robust z-score, replicate 3: -1.28

Further reagents follow.
gene symbol,pool no.,"robust z-score, replicate 1","robust z-score, replicate 2","robust z-score, replicate 3"
ST8SIA6,1,1.33,0.941,1.27
ZNF396,1,0.574,0.766,-0.134
CA3,1,0.578,1.11,0.879
C20orf96,1,-0.71,-1.49,-0.0504
OR4E2,1,1.38,-0.663,-0.488
ETNK2,1,0.13,0.133,-0.746
IL36R,1,0.485,-0.28,0.102
LOC220998 (retired record),1,-0.319,-0.0901,-0.299
SLC5A2,1,0.346,1.32,1.14
OR2T11,1,1.18,0.393,-0.64
LOC440990 (retired record),1,0.368,0.485,0.34
COL7A1,1,1.08,1.02,1.03
BCAS4,1,0.054,-0.795,-1.3
KLK10,1,-0.643,-0.807,-0.885
ERCC6L,1,0.016,-0.457,0.0246
ZNF566,1,-1.67,-1.13,-1.93
LOC126537 (retired record),1,-0.899,-1.87,-1.73
KATNB1,1,-0.282,0.65,0.024
MTERF4,1,-1.14,0.176,-0.418
VTN,1,0.0283,-0.957,-0.549
TRIM50,1,-1.4,-0.871,-0.394
ENAM,1,-1.43,0.269,0.0193
TAAR5,1,0.136,0.42,0.361
LDHB,1,-1.17,-1.18,-1.52
ADGRD2,1,-1.2,-0.897,-0.978
MYO16,1,-1.67,-0.699,-1.46
CRAT,1,0.478,0.616,0.331
BUD31,1,-0.797,-0.971,-1.21
